Assay: Tabletting trouble when the crystal is used as main component to prepare tablets
Details: D-form crystal used as a main component to prepare tablets
Method: A fumarate salt of compound (I) (11.6 kg) was dissolved at 25° C. in a mixed solvent of ethyl acetate (104.6 kg) and methanol (9.2 kg). After the solution was concentrated, ethyl acetate (86.8 kg) was added at 25° C. to the concentrated residue, followed by stirring at 24° C. for 1 hour to give a C-form crystal. After addition of water (2.0%, 1.9 kg), this C-form crystal was gradually cooled to ensure its conversion into E-form crystal. The suspension was further cooled to 15° C. and stirred for 1 hour, followed by cooling to −10° C. The resulting crystal was then centrifuged to give a wet D-form crystal (13.4 kg). This wet D-form crystal was dried under reduced pressure at 60° C. for 28 hours to give the D-form crystal of the fumarate salt of compound (I) (10.5 kg, yield 90.5%, average particle size: 141 μm).
A fumarate salt of compound (I) (10.8 kg) was dissolved at 25° C. in a mixed solvent of ethyl acetate (87.6 kg) and methanol (8.5 kg). After the solution was concentrated, ethyl acetate (80.8 kg) was added at 25° C. to the concentrated residue, followed by stirring at 25° C. for 1 hour to give a C-form crystal. After addition of water (1.5%, 1.3 kg), this C-form crystal was cooled to 15° C. and stirred for 1 hour to ensure its conversion into D-form crystal. The suspension was further cooled to −10° C. and stirred for 1 hour. The resulting crystal was then centrifuged to give a wet D-form crystal (12.7 kg). This wet D-form crystal was dried under reduced pressure at 60° C. for 16 hours to give the D-form crystal of the fumarate salt of compound (I) (10.8 kg, yield 87.4%, average particle size: 82 μm).

| Compound | Tabletting trouble |
| --- | --- |
| CC[C@H]1OC(=O)[C@H](C)[C@@H](O[C@H]2C[C@@](C)(OC)[C@@H](O)[C@H](C)O2)[C@H](C)[C@@H](O[C@@H]2O[C@H](C)C[C@H](N(C)C(C)C)[C@H]2O)[C@]2(C)CC(C)=C(O2)[C@H](C)C(=O)[C@]1(C)OC [Example 8] | No |
| CC[C@H]1OC(=O)[C@H](C)[C@@H](O[C@H]2C[C@@](C)(OC)[C@@H](O)[C@H](C)O2)[C@H](C)[C@@H](O[C@@H]2O[C@H](C)C[C@H](N(C)C(C)C)[C@H]2O)[C@]2(C)CC(C)=C(O2)[C@H](C)C(=O)[C@]1(C)OC [Comparison Example 1] | Tabletting troubles were observed and Yes |
| CC[C@H]1OC(=O)[C@H](C)[C@@H](O[C@H]2C[C@@](C)(OC)[C@@H](O)[C@H](C)O2)[C@H](C)[C@@H](O[C@@H]2O[C@H](C)C[C@H](N(C)C(C)C)[C@H]2O)[C@]2(C)CC(C)=C(O2)[C@H](C)C(=O)[C@]1(C)OC [Comparison Example 2, reference compound] | Yes |
| CC[C@H]1OC(=O)[C@H](C)[C@@H](O[C@H]2C[C@@](C)(OC)[C@@H](O)[C@H](C)O2)[C@H](C)[C@@H](O[C@@H]2O[C@H](C)C[C@H](N(C)C(C)C)[C@H]2O)[C@]2(C)CC(C)=C(O2)[C@H](C)C(=O)[C@]1(C)OC [Example 7] | No |

— patent publication US7645864B2, “Erythromycin derivative having novel crystal structures and processes for their production” (Chugai Seiyaku Kabushiki Kaisha, priority 2001, dated 2010)
